From paper PMC3393700, “Localization and Sub-Cellular Shuttling of HTLV-1 Tax with the miRNA Machinery” (PLoS ONE, 2012)
These are yes or no findings as the source states them, for the method shown. In cells and extracts the contact can be indirect. Some entries that bind do so weakly or less than the wild type.

Assays:
[1] = biological target: HTLV-1 Tax, wild type, expressed in 293T cells (HTLV-1) (UniProt P03409); test: co-IP; 293T whole cell extracts (~1 mg) of cells transfected with pACH.Tax or pACH.M22 in the presence of the proteasome inhibitor PSI (10 µM); IP with α-Tax overnight at 4°C, Protein A+G beads, washes with TNE150 and TNE50 + 0.1% NP-40; western blot for Drosha
[2] = biological target: GST-Tax wild type (HTLV-1) (UniProt P03409); test: pull-down; GST-Tax fusion proteins bound to glutathione-Sepharose beads incubated with HeLa whole cell extract (1 mg) in TNE50 + 0.1% NP-40 overnight at 4°C; washed with TNE150 + 0.1% NP-40 and TNE50 + 0.1% NP-40; western blot for Drosha; only the target purified
[3] = biological target: GST-Tax N-terminus, 1–244 (HTLV-1) (UniProt P03409); test: as above

Molecule | binding [1] | binding [2] | binding [3]
Drosha (endogenous, 293T cell lysate) (from UniProt Q9NRR4 1-1374) (enzyme) | binds | – | –
Drosha (endogenous, 293T cell lysate) (enzyme, human (endogenous in 293T), UniProt Q9NRR4 1-1374, looked up) MMQGNTCHRMSFHPGRGCPRGRGGHGARPSAPSFRPQNLRLLHPQQPPVQYQYEPPSAPSTTFSNSPAPNFLPPRPDFVPFPPPMPPSAQGPLPPCPIRPPFPNHQMRHPFPVPPCFPPMPPPMPCPNNPPVPGAPPGQGTFPFMMPPPSMPHPPPPPVMPQQVNYQYPPGYSHHNFPPPSFNSFQNNPSSFLPSANNSSSPHFRHLPPYPLPKAPSERRSPERLKHYDDHRHRDHSHGRGERHRSLDRRERGRSPDRRRQDSRYRSDYDRGRTPSRHRSYERSRERERERHRHRDNRRSPSLERSYKKEYKRSGRSYGLSVVPEPAGCTPELPGEIIKNTDSWAPPLEIVNHRSPSREKKRARWEEEKDRWSDNQSSGKDKNYTSIKEKEPEETMPDKNEEEEEELLKPVWIRCTHSENYYSSDPMDQVGDSTVVGTSRLRDLYDKFEEELGSRQEKAKAARPPWEPPKTKLDEDLESSSESECESDEDSTCSSSSDSEVFDVIAEIKRKKAHPDRLHDELWYNDPGQMNDGPLCKCSAKARRTGIRHSIYPGEEAIKPCRPMTNNAGRLFHYRITVSPPTNFLTDRPTVIEYDDHEYIFEGFSMFAHAPLTNIPLCKVIRFNIDYTIHFIEEMMPENFCVKGLELFSLFLFRDILELYDWNLKGPLFEDSPPCCPRFHFMPRFVRFLPDGGKEVLSMHQILLYLLRCSKALVPEEEIANMLQWEELEWQKYAEECKGMIVTNPGTKPSSVRIDQLDREQFNPDVITFPIIVHFGIRPAQLSYAGDPQYQKLWKSYVKLRHLLANSPKVKQTDKQKLAQREEALQKIRQKNTMRREVTVELSSQGFWKTGIRSDVCQHAMMLPVLTHHIRYHQCLMHLDKLIGYTFQDRCLLQLAMTHPSHHLNFGMNPDHARNSLSNCGIRQPKYGDRKVHHMHMRKKGINTLINIMSRLGQDDPTPSRINHNERLEFLGDAVVEFLTSVHLYYLFPSLEEGGLATYRTAIVQNQHLAMLAKKLELDRFMLYAHGPDLCRESDLRHAMANCFEALIGAVYLEGSLEEAKQLFGRLLFNDPDLREVWLNYPLHPLQLQEPNTDRQLIETSPVLQKLTEFEEAIGVIFTHVRLLARAFTLRTVGFNHLTLGHNQRMEFLGDSIMQLVATEYLFIHFPDHHEGHLTLLRSSLVNNRTQAKVAEELGMQEYAITNDKTKRPVALRTKTLADLLESFIAALYIDKDLEYVHTFMNVCFFPRLKEFILNQDWNDPKSQLQQCCLTLRTEGKEPDIPLYKTLQTVGPSHARTYTVAVYFKGERIGCGKGPSIQQAEMGAAMDALEKYNFPQMAHQKRFIERKYRQELKEMRWEREHQEREPDETEDIKK | – | binds | binds
